# PubChem BioAssay AID588590 (National Center for Advancing Translational Sciences (NCATS), 2011)
# Protein sequences, listed by entry. Tags and fused reporters are not part of them. Lines headed by an entry give the natural chain unless they say otherwise; changes in a name come on top.
# UniProt Q9UNA4: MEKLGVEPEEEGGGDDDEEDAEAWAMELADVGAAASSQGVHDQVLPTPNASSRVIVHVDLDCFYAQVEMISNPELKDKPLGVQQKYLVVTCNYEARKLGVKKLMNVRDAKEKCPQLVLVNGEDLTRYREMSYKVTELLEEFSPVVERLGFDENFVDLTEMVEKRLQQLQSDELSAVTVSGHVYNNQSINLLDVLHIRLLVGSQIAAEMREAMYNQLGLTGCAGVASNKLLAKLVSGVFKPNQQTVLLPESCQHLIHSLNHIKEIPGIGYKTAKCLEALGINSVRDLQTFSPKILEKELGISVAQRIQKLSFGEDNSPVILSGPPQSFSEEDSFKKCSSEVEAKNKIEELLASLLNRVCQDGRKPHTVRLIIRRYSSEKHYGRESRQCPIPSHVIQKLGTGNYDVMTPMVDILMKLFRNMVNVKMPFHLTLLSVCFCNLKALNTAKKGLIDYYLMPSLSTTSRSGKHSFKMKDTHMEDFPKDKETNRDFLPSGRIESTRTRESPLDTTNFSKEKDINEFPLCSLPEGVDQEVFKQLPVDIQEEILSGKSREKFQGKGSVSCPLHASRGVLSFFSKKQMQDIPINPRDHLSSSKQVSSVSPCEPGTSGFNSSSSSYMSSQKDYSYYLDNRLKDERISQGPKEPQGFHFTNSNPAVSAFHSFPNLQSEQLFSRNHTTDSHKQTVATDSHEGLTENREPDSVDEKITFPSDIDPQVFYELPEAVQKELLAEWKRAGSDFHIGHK
# Screen size: about 390,000 compounds; about 4,000 (1%) were called active. The shares of active, inactive and inconclusive entries below differ from those in the screen. Calls come from the whole dose curve; as a rule, active = well fitted inhibition curve with a large enough effect; inconclusive = small, poorly fitted or top-dose-only effect, or another doubt; inactive = no such curve, though single readings can be large or run the other way. A potency beside an inconclusive call is a rough fit, not a confirmed value.
# Target: DNA polymerase iota (Homo sapiens) (UniProt Q9UNA4)
# Experiment: qHTS for Inhibitors of Polymerase Iota
# Settings: Pol iota fluorescent replication assay, 10 min; series mostly up to 115 µM; activity, negative = inhibition: at the top concentration
# How it was run: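 Pol iota at 10 nM preincubated 15 min with compounds at room temperature; reaction started with fluorescent substrate, 50 nM final. Fluorescence read kinetically at 0 and 10 min; buffer-only wells as negative control.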
# Potency is the fitted concentration of half-maximal effect.
SMILES,Potency,"activity, negative = inhibition"
Cc1cccc(NC(=O)c2cc(S(=O)(=O)N3CCCC3)cn2C)c1,"inconclusive: 1.58 µM [inhibitor, partial curve, poor fit]",
CCOC(=O)/C=C/C(=O)OCC(=O)Nc1ccc(OC)c(Cl)c1,"inconclusive: 31.6 µM [inhibitor, single point]",
NC(=O)CC(NC(=O)Cc1ccc(Cl)cc1)c1ccc(NCCCN2CCCC2=O)c([N+](=O)[O-])c1 (stereo not given),,inactive: 4.04%
CCN1CCN(C(c2ccc(F)cc2)c2nnnn2Cc2cccs2)CC1 (stereo not given),"inconclusive: 7.94 µM [inhibitor, single point]",
O=C(O)COc1ccc2c3c(c(=O)oc2c1)CCC3,"inconclusive: 50.1 µM [inhibitor, partial curve, poor fit]",
O=C(CCl)N(c1ccc(Cl)cc1)c1c[nH]c2ccccc12,"inconclusive: 89.1 µM [inhibitor, single point]",
O=C(Nc1ccc(Cc2ccncc2)cc1)C1CCC(N2C(=O)C3CC=CCC3C2=O)CC1 (stereo not given),"inconclusive: 39.8 µM [inhibitor, full curve, poor fit]",
COc1ccc(S(=O)(=O)N2CCC(N3CCN(Cc4ccccc4)C(=O)C3=O)CC2)cc1,,inactive: -27.9%
CC1CC(C)CN(CC(=O)Nc2ccc3c(c2)OCCO3)C1 (stereo not given),"inconclusive: 39.8 µM [inhibitor, single point]",
O=C(CSc1cc(Cl)ccc1Cl)Nc1ccc(N2CCOCC2)cc1,"inconclusive: 39.8 µM [inhibitor, single point]",
COCCCNC(=O)Cn1c(=O)n(-c2cccc(C)c2)c(=O)c2c1c1cc(C)ccc1n2C,"inconclusive: 79.4 µM [inhibitor, partial curve]",
CCOc1cc(N2CCOCC2)c(OCC)cc1NC(C)C(=O)N1CCN(CC)CC1 (stereo not given),active: 12.6 µM,
COc1ccc2ccccc2c1/C=N/NC(=S)NCCN1CCOCC1,"inconclusive: 56.2 µM [inhibitor, partial curve, poor fit]",
CCc1nnc(NC(=O)CSc2nnc(-c3ccco3)n2C)s1,"inconclusive: 79.4 µM [inhibitor, partial curve]",
Cc1nc2c(C(=O)NCCC(C)C)c[nH]n2c(=O)c1Cc1ccccc1F,"inconclusive: 50.1 µM [inhibitor, partial curve]",
O=C(N/N=C/c1cccc(Br)c1)c1ccc(N2CCCC2=O)cc1,"inconclusive: 39.8 µM [inhibitor, partial curve, poor fit]",
CCCc1nc(NCc2ccncc2)c2nnn(Cc3ccccc3F)c2n1,"inconclusive: 39.8 µM [inhibitor, single point]",
Cc1oc(-c2ccccc2Cl)nc1CSCC(=O)N1CCCC1,,inactive: 26.4%
Cc1ccc(NC(=O)CSC2=C(C#N)C(c3ccco3)C3=C(CCCC3=O)N2)cc1 (stereo not given),"inconclusive: 39.8 µM [inhibitor, single point]",
O=C(CNC(=O)C12CC3CC(CC(C3)C1)C2)NCc1ccccc1,,inactive: 45.2%

SMILES,Potency,"activity, negative = inhibition"
COc1cc(CNc2ccc3[nH]c(=O)[nH]c3c2)cc(Cl)c1OCC(=O)NC(C)(C)C,"inconclusive: 3.16 µM [inhibitor, partial curve, poor fit]",
CCc1nnc(NC(=O)c2cc(-c3ccccn3)nc3ccccc23)s1,,inactive: 0.642%
Cc1ccc2nc(NC(=O)COC(=O)CSc3nc(C)cc(C)n3)sc2c1,,inactive: 37.8%
O=C(CSCc1ccc(Cl)cc1)Nc1ccc2c(c1)OCO2,"inconclusive: 5.01 µM [inhibitor, full curve, poor fit]",
CCOC(=O)c1c(NC(=O)Cc2ccccc2)sc2c1CC(C)(C)NC2(C)C,"inconclusive: 39.8 µM [inhibitor, single point]",
CC(C)OC(=O)c1cccc(C(=O)Oc2ccccc2)n1,"inconclusive: 56.2 µM [inhibitor, partial curve]",
CCOC(=O)c1c(-c2ccccc2)csc1NC(=O)/C(C#N)=C\c1ccc(O)c(OC)c1,"inconclusive: 28.2 µM [inhibitor, single point]",
C=CC1=C(C(=O)O)N2C(=O)[C@@H](NC(=O)/C(=N\O)c3csc(N)n3)[C@H]2SC1 (stereo in doubt),"inconclusive: 56.2 µM [inhibitor, partial curve, poor fit]",
CCOC(=O)c1c(NC(=S)Nc2ccccc2)sc2c1CCN(CC)C2,"inconclusive: 31.6 µM [inhibitor, partial curve, poor fit]",
Cc1ccccc1NC(=O)COC(=O)c1c[nH]c(=O)[nH]c1=O,,inactive: -12.3%
O=C(CCCN1C(=O)S/C(=C/c2ccccc2)C1=S)Nc1ccc(C(=O)O)cc1,"inconclusive: 79.4 µM [inhibitor, single point]",
Nc1cc(C(F)(F)F)ccc1S(=O)(=O)Nc1cccc2c1NCCC2,,inactive: 17.5%
COc1ccc(OC)c(NC(=O)CSC2=Nc3ccccc3C3=NC(CCC(=O)NCc4ccccc4)C(=O)N23)c1 (stereo not given),,inactive: -4.6%
Cc1nc2ccn(Cc3cccs3)c(=O)c2cc1C(=O)NCc1ccc(Br)cc1,"inconclusive: 5.62 µM [inhibitor, full curve, poor fit]",
C#CCOCCOCCOCCNc1nc(N2CCN(C(=O)[C@H]([C@@H](C)CC)n3cc([C@@H](N)CO)nn3)CC2)nc(N2CCN(C(=O)[C@H](CCCCN)n3cc([C@@H](N)CO)nn3)CC2)n1,"inconclusive: 8.91 µM [inhibitor, partial curve, poor fit]",
C/C(N)=C(/C#N)C(=O)CSc1nc2ccccc2c(=O)n1Cc1ccc(C)cc1,"inconclusive: 56.2 µM [inhibitor, partial curve]",
COC(=O)c1ccccc1-c1c2ccc(=N)cc-2oc2cc(N)ccc12,active: 79.4 µM,
COc1ccc(C(=O)Nc2cccc(-c3cn4ccsc4n3)c2)c(OC)c1,,inactive: -0.47%
Oc1ccccc1-c1nnc(SCCN2CCOCC2)n1Cc1ccccc1,"inconclusive: 1.41 µM [inhibitor, full curve, poor fit]",
Cc1cccc(CSc2nnc(-c3ccco3)n2C)c1,"inconclusive: 100 µM [inhibitor, single point]",

# Given with bars between the fields: part of the list above
SMILES | Potency | activity, negative = inhibition
O=C(N/N=C/c1cccc(Br)c1)c1ccc(N2CCCC2=O)cc1 | inconclusive: 39.8 µM [inhibitor, partial curve, poor fit] | 
Oc1ccccc1-c1nnc(SCCN2CCOCC2)n1Cc1ccccc1 | inconclusive: 1.41 µM [inhibitor, full curve, poor fit] | 
